The values that follow come from PMC7518282.

For at least one entry, the source does not settle the construct or the ends of the probe. A weaker result is weaker than the reference pair of the same experiment.

For the data set, the system named is PAL. The data set can be described thus: plate RNA binding assay (RiboGreen), immobilized PAL. Conditions: dark; 12 mM HEPES/KOH pH 7.2, 135 mM KCl, 10 mM NaCl, 10% w/v glycerol, 0.5 mg/mL heparin, 0.5 mg/mL BSA, 25 C, 30 min, 465 nm light or dark, 100 or 1000 nM …; recombinant protein.

With “GGGAGGACGAUGCGGCCCGUACAGCAGCGAUGCGGGUCGCGUGUCCACCCCGGCUCAGACGACUCGCUGAGGAUCCGAGA [aptamer 53]”, the binding result is recorded as “binds more weakly”.
